# The full ranking holds about 33,000 sequences; the median of “E-score (-0.5 to 0.5)” is about -8e-05, and the highest 2% start at about 0.23. The list shows a part of the results.
# Target: T1, Nrg2 (UniProt P38082)
# T1 sequence: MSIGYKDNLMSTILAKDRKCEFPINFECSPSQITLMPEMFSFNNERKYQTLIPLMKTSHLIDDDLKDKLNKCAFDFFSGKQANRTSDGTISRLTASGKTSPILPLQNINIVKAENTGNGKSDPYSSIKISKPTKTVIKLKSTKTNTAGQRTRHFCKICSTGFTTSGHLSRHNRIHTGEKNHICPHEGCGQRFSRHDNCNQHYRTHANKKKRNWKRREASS
# Assay: PBM E-score (8-mer binding enrichment) (E-score (-0.5 to 0.5)); higher = stronger / more preferred TF binding
# Settings: protein concentration: 100 nM; construct: GST-full length
# Description: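 Universal 'all 10-mer' protein binding microarrays (Agilent AMADID 015681) probed with GST-tagged S. cerevisiae TFs (full-length or DBD) made by in vitro transcription/translation (PURExpress), about 100-200 nM. Bound TF was detected with fluorescent anti-GST. Each ungapped 8-mer (which stands for itself and its reverse complement) is scored by the PBM enrichment score (E-score), a modified Wilcoxon-Mann-Whitney statistic from -0.5 to +0.5, computed with the Universal PBM Analysis Suite. Scale: above 0.35 generally sequence-specific binding.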
row,Sequence,PBM E-score
1,CCTGGTTA,-0.00802
2,ATATCCGG,0.0451
3,ACAAATTG,0.185
4,TCTCAGCA,-0.0563
5,GTACGCGA,0.0455
6,GCTATCAC,0.065
7,TGGCCACA,0.15
8,TACGGTGA,0.0911
9,CGCCCTCC,-0.199
10,AGCGGGCC,-0.0525
11,CTCTGCCC,0.00382
12,AAGGACTA,-0.123
13,GCCAGGGC,0.0111
14,CGTTCACA,0.0411
15,CTCAGCAG,-0.101
16,AAGGTTGA,-0.0333
17,CCGAACAA,0.0547
18,CACCAGGA,-0.0256
19,AGGGGGAA,-0.296
20,AATCTAGT,0.0347
21,ACTTCTTC,-0.0215
22,GAGCAAGC,-0.089

row,Sequence,PBM E-score
1,AACTACAG,0.0408
2,CCCCTCTA,-0.148
3,CCTGCTGA,0.171
4,AAGGTCAC,-0.0104
5,TCAGAAAA,-0.0216
6,CGTATTAC,-0.0295
7,GAGTTTAA,0.0623
8,GACCCTAA,0.237
9,CGCTTGAC,0.0173
10,CGGATGAC,-0.0636
11,CTCTGAAC,-0.14
12,CGCATTGA,0.0701
13,ATTCAGGG,0.367
14,ACTAGCGG,0.00229
15,GGTGAAGA,-0.0891
16,ATCGGACG,-0.0401
17,CAAGGAAA,-0.0239
18,TAGAGTCA,-0.222
19,GTTTTCCA,0.116
20,ATGCTCCC,-0.18
21,CGCGACTA,0.144
22,GGCCCTGA,0.24

row,Sequence,PBM E-score
1,TATGTTAA,-0.127
2,CGCTCTAA,0.00204
3,GACGAGAC,0.0386
4,AAAAGACT,-0.269
5,AATGTCAT,-0.0736
6,TACTTGGA,0.151
7,ATACAGCA,0.0568
8,CAGCCGGG,-0.173
9,GTGACGGA,0.0626
10,CGCAGGAC,-0.0809
11,CATATATG,0.0123
12,TAGGCTGA,-0.1
13,AAAAGTTG,0.127
14,TAGGGCCA,-0.0846
15,ACCGTCAG,-0.0681
16,CAAACTCA,0.0998
17,CGCCAATC,-0.0209
18,CCCACTCG,-0.102
19,ACCTTTCC,-0.0859
20,ATTAGTTC,0.158
21,CGAGGGGC,-0.109
22,ATCAAATC,0.145

row,Sequence,PBM E-score
1,CAGGACAG,0.0519
2,GAGGCCAA,0.0475
3,CCGATTAC,0.00664
4,AATTGAGA,0.0993
5,TACCACTA,-0.00485
6,AAGAAACA,0.195
7,ACCAGTAT,0.0923
8,GGGCACCC,-0.137
9,AATATCGT,0.131
10,GTAGACCA,-0.11
11,ATTGGATA,-0.00533
12,CGTTTCAA,-0.00866
13,TGCTAACA,-0.127
14,ATCTTATG,0.0237
15,ACCTGGCA,-0.0498
16,AAATTTCA,-0.115
17,ACTGGGTA,0.051
18,AGGGCAGG,0.00494
19,CGGGAGGA,0.0906
20,GATGGCGA,0.0429
21,AGAATACA,0.149
22,GAGACCAA,0.241

# Taken from above (21 entries):
row,Sequence,PBM E-score
11,CATATATG,0.0123
12,TAGGCTGA,-0.1
13,AAAAGTTG,0.127
14,TAGGGCCA,-0.0846
15,ACCGTCAG,-0.0681
16,CAAACTCA,0.0998
17,CGCCAATC,-0.0209
18,CCCACTCG,-0.102
19,ACCTTTCC,-0.0859
20,ATTAGTTC,0.158
21,CGAGGGGC,-0.109
22,ATCAAATC,0.145
1,CAGGACAG,0.0519
2,GAGGCCAA,0.0475
3,CCGATTAC,0.00664
4,AATTGAGA,0.0993
5,TACCACTA,-0.00485
6,AAGAAACA,0.195
7,ACCAGTAT,0.0923
8,GGGCACCC,-0.137
9,AATATCGT,0.131

# The list goes on.

row,Sequence,PBM E-score
1,CTACAGCA,0.032
2,CAATGACA,0.0886
3,GATCTTCA,0.0364
4,GCCTTTTA,-0.0752
5,ACTAAAAA,0.0129
6,AATTAAGA,0.0656
7,CGTTCTAG,0.123
8,CTAGACAG,0.0211
9,CTCGAAAG,0.0195
10,ACTCCCAA,0.0134
11,ACTAGTAC,0.027
12,CGATCACA,0.113
13,GAGACATA,0.0701
14,GCATTCAA,0.0965
15,GCTGTTGA,0.0699
16,CCCTAATA,0.202
17,GTGTGCAA,0.0196
18,ACGATGAG,0.0919
19,ATATTACG,0.214
20,CGGACGCA,0.0898
21,CCACCCCA,-0.035
22,CATAAGTA,0.076
